# Values from PubChem BioAssay AID1159584 (Peter MacCallum Cancer Centre, 2016).
# Test: 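Knock-downs that harm CDH1-null cells more than parental MCF10A cells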 (primary screen)
# Cell system: human MCF10A breast epithelial cells, parental and CDH1-null
# Knock-down reagent: siRNA against human genes
# Detection: 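ATP luminescence (CellTiter-Glo) viability per line relative to mean mock wells over all plates, and the ratio of CDH1-null to parental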
# Scale: CDH1-null / parental viability ratio: higher = CDH1-null cells survive relatively better than parental; CDH1-null viability vs mock: higher = more viable CDH1-null cells; parental viability vs mock: higher = more viable parental cells
# This is an unselected part of about 18,000 reagents. Reagent sequences are not shown. Not given: the amount of reagent, the time to read-out.
Gene,CDH1-null / parental viability ratio,CDH1-null viability vs mock (fraction of mock),parental viability vs mock (fraction of mock)
PQBP1,0.98,0.82,0.84
VCX3B,0.85,0.76,0.89
EPC1,1.3,1.17,0.9
OR51T1,0.91,0.32,0.35
COQ8A,0.56,0.4,0.71
SMCO1,0.98,1.01,1.03
KBTBD11,1.27,1.12,0.88
IL26,1.11,0.84,0.76
AOC2,1.31,0.71,0.54
AMPD1,1.24,1.23,0.99
H3C7,1.25,1.05,0.84
DTWD1,0.95,0.72,0.76
DKC1,0.87,0.71,0.82
OR10A3,1.01,0.85,0.84
NPHP4,1.46,1.04,0.71
USPL1,0.65,0.52,0.8
SLC39A7,1.33,0.48,0.36
SHC1,1.57,0.66,0.42
HOXB3,0.87,0.73,0.84
CCN6,1.61,0.5,0.31
ENGASE,0.76,0.53,0.7
GPR22,1.4,0.95,0.68
STT3A,0.97,0.98,1.01
EEF1A2,1.04,1.21,1.16
RAB33B,1.1,0.74,0.67
OR8S1,0.82,0.56,0.68
POM121L12,1.23,0.74,0.6
TCERG1,0.92,0.96,1.04
IQUB,0.71,0.72,1.01
CNOT6L,0.91,0.73,0.8
MMGT1,0.9,0.72,0.8
UBE2D1,1.48,0.68,0.46
RAB4B,0.87,0.54,0.62
DEPTOR,0.98,0.86,0.88
STMN4,0.91,0.72,0.79
SERINC4,1.16,0.72,0.62
SP5,0.93,0.84,0.9
SPP2,0.99,0.9,0.91
SEM1,0.99,0.82,0.83
DENND1C,0.85,0.58,0.68
MCM2,1.02,0.88,0.86
TLDC2,0.97,0.83,0.86
CHST5,1.34,0.59,0.44
EP300,1.09,0.88,0.81
CRTAM,1.08,1.16,1.07
PSMA5,1.45,0.58,0.4
DMAP1,1.45,0.61,0.42
SUSD2,0.95,0.57,0.6
IFT25,1.07,0.88,0.82
RSKR,0.88,0.8,0.91
OR13G1,0.97,0.66,0.68
ARR3,1.29,0.89,0.69
UQCRFS1,0.91,0.87,0.96
ORC3,1.02,0.84,0.82
CSPG4,1.02,1.03,1.01
PRKD2,0.79,0.6,0.76
MFN1,1.12,0.92,0.82
CNOT4,0.75,0.43,0.57
KCNA7,1.4,1.09,0.78
PYCARD,1.08,1.08,1
TBCC,0.89,0.68,0.76
HTATSF1,0.68,0.36,0.53
SAYSD1,1.09,0.5,0.46
PPP1R17,0.71,0.51,0.72
POLA1,0.76,0.42,0.55
PDHA2,1.06,0.94,0.89
CHD8,1,0.86,0.86
DHRS3,0.73,0.51,0.7

Sorted by “parental viability vs mock (fraction of mock)” (descending): some entries from above.
Gene,CDH1-null / parental viability ratio,CDH1-null viability vs mock (fraction of mock),parental viability vs mock (fraction of mock)
H3C7,1.25,1.05,0.84
OR10A3,1.01,0.85,0.84
HOXB3,0.87,0.73,0.84
DKC1,0.87,0.71,0.82
USPL1,0.65,0.52,0.8
DTWD1,0.95,0.72,0.76
NPHP4,1.46,1.04,0.71
SHC1,1.57,0.66,0.42
SLC39A7,1.33,0.48,0.36
CCN6,1.61,0.5,0.31
